Reference: patent US20160151503A1, “COMPOSITIONS AND PREPARATION METHODS OF LOW MELTING IONIC SALTS OF POORLY-WATER SOLUBLE DRUGS” (MW ENCAP LIMITED, priority 2013, published 2016)
At least one read-out could not be matched to a standard name with certainty.

Assay: In vitro digestion of itraconazole SEDDS formulations, drug in aqueous solubilised phase
Type: in vitro ADME
Conditions: simulated intestinal digestion; versus ITZ FB suspension at same concentration

Compound: CCC(C)n1ncn(-c2ccc(N3CCN(c4ccc(OCC5COC(Cn6cncn6)(c6ccc(Cl)cc6Cl)O5)cc4)CC3)cc2)c1=O (stereo not shown) [Itraconazole- diocytlsulfosuccinate, Itraconazole Dioctylsulfosuccinate (Docusate)]
- drug solubilisation in the aqueous solubilised phase (FIG. 4): significantly enhance and maintain drug solubilisation
